In the supplement of paper PMC8732350:
Where a name gives a salt, the structure may show the parent alone. ± gives the standard deviation of the averaged measurements. The list shows a part of the results. Single values are uncertain here, since repeats match poorly.

Each compound was assayed on A549 (assay: surface PD-L1 immunofluorescence intensity relative to IFN-gamma-only control (ratio); higher = more PD-L1 expression). Details: 10 µM; exposure time 24 h; IFN-gamma 100 ng/mL.

Compound | surface PD-L1 immunofluorescence intensity
Clc1ccc(CSC(Cn2ccnc2)c2ccc(Cl)cc2Cl)cc1 (stereo not drawn) [Sulconazole nitrate] | 1.02
COc1ccccc1N1CCN(CCN(C(=O)C2CCCCC2)c2ccccn2)CC1 | 0.971
CN1C(=O)CC(c2ccccc2)C1=O (stereo not drawn) [Phensuximide] | 1.05
O=C(NCCCN1CCC2(CC1)OCc1ccccc12)[C@H]1CCCN1Cc1ccccc1 | 1.1
Fc1ccc(Cl)cc1-c1nc(Nc2ccncc2)c2nccnc2n1 | 0.987
CN(C)CCN(Cc1ccccc1)c1ccccn1 [Tripelennamine hydrochloride] | 1.02
CC1CNc2c(cccc2S(=O)(=O)N[C@@H](CCCNC(=N)N)C(=O)N2CC[C@@H](C)C[C@@H]2C(=O)O)C1 (stereo partly drawn) [Argatroban] | 1.03 ± 0.068
O=C(/C=C/c1ccccc1)NC(NC(=S)Nc1cccc2cccnc12)C(Cl)(Cl)Cl (stereo not drawn) [Salubrinal] | 1.01
CCCOC(=O)c1cc(O)c(O)c(O)c1 [N-Propyl gallate] | 0.971
CCCSc1nc(N[C@@H]2C[C@H]2c2ccc(F)c(F)c2)c2nnn([C@@H]3C[C@H](OCCO)[C@@H](O)[C@H]3O)c2n1 [Ticagrelor] | 1.1
C=C1C[C@@]2(O)O[C@@]3(C[C@H]2C(C)C)[C@@H](C)CC[C@@H]13 [Curcumol] | 1.12
O=C(O)COCCN1CCN(C(c2ccccc2)c2ccc(Cl)cc2)CC1 (stereo not drawn) [Cetirizine dihydrochloride] | 1.1
N[C@@H]1CONC1=O [D-cycloserine] | 0.991
C#C[C@]1(OC(C)=O)CC[C@H]2[C@@H]3CCC4=CC(=NO)CC[C@@H]4[C@H]3CC[C@@]21CC (mixture of isomers) [Norgestimate] | 0.925
CC(=O)O[C@]1(C(C)=O)CC[C@H]2[C@@H]3C=C(Cl)C4=CC(=O)[C@@H]5C[C@@H]5[C@]4(C)[C@H]3CC[C@@]21C [Cyproterone acetate] | 1.08 ± 0.12
Clc1ccc(CO/N=C(\Cn2ccnc2)c2ccc(Cl)cc2Cl)c(Cl)c1 [Oxiconazole Nitrate] | 0.957
COc1cccc(CCc2ccccc2OCC[C@@H]2C[C@@H](O)CN2C)c1 | 0.956
COc1cc2nc(N(C)CCCNC(=O)C3CCCO3)nc(N)c2cc1OC (stereo not drawn) [Alfuzosin hydrochloride] | 1.08
Clc1ccc(Cn2c(CN3CCCC3)nc3ccccc32)cc1 [Clemizole hydrochloride] | 1
O=C(O)/C=C/c1ccc(O)c(O)c1 [Caffeic acid] | 0.987
CN1C[C@@H]2C[C@H]1CN2c1cc2c(cc1F)c(=O)c(C(=O)O)cn2C1CC1 [Danofloxacin Mesylate] | 0.943
N[C@@H](Cc1c[nH]c2ccc(O)cc12)C(=O)O [5-hydroxytryptophan (5-HTP)] | 1.07
CC(=O)Nc1nc2c(Oc3cc(-c4ccc(C(F)(F)F)cc4)ncn3)cccc2s1 | 1.08
O=C(O)Cc1nn(Cc2ccc(Br)cc2F)c(=O)c2ccccc12 [Statil] | 0.869
NC(N)=Nc1ccc(Cl)cc1 [4-Chlorophenylguanidine hydrochloride] | 0.994
N=C(N)Nc1ccc(C(=O)Oc2ccc3cc(C(=N)N)ccc3c2)cc1 [Nafamostat mesylate] | 1.08

Compound | surface PD-L1 immunofluorescence intensity
C[C@]12CC[C@H](O)CC1=CC[C@@H]1[C@@H]2CC[C@]2(C)C(n3cnc4ccccc43)=CC[C@@H]12 [Galeterone (TOK-001)] | 1.06
CC1=C(/C=C/C(C)=C/C=C/C(C)=C/C(=O)O)C(C)(C)CCC1 [Retinoic acid, all trans] | 0.99
CC1=C(/C=C/C(C)=C/C=C/C(C)=C/C(=O)O)C(C)(C)CCC1 [Retinoic acid] | 1.03 ± 0.085
CC1=C(/C=C/C(C)=C/C=C/C(C)=C/C(=O)O)C(C)(C)CCC1 [Retinoic Acid] | 1.04
NC(=O)c1cc[n+](CC2=C(C(=O)[O-])N3C(=O)[C@@H](NC(=O)[C@@H](c4ccccc4)S(=O)(=O)O)[C@H]3SC2)cc1 [Cefsulodin sodium salt] | 1.03
CCCCCC#CCC#CCC#CCC#CCCCC(=O)O [5,8,11,14-Eicosatetraynoic acid] | 1.06
CC(=O)Oc1ccccc1C(=O)O [Acetylsalicylic acid] | 1.08
CNS(=O)(=O)CCc1ccc2[nH]cc(C3CCN(C)CC3)c2c1 [Naratriptan HCl] | 0.911
COc1ccc2ccc(=O)oc2c1CC=C(C)C [Osthole (Osthol)] | 1.13
N=C(N)NS(=O)(=O)c1ccc(N)cc1 [Sulfaguanidine] | 0.867
CC1(C)[C@H](C(=O)O)N2C(=O)C[C@H]2S1(=O)=O [Sulbactam] | 0.971
Cc1ncc(CO)c(CO)c1O [Pyridoxine hydrochloride] | 0.899
CN1CCc2cc(Cl)c(O)cc2[C@@H](c2ccccc2)C1 | 0.923
C#Cc1cccc(Nc2ncnc3cc4c(cc23)OCCOCCOCCO4)c1 [Icotinib] | 1.01 ± 0.06
CCc1c(C)[nH]c2c1C(=O)C(CN1CCOCC1)CC2 (stereo not drawn) [Molindone hydrochloride] | 0.973
NC(=O)CNCCC(c1ccccc1)c1ccccc1 [N20C hydrochloride] | 1.02
c1ccc(-c2[nH]ncc2-c2ccnc3ccccc23)nc1 | 0.987
N[C@@H](CCC(=O)N[C@@H](CS)C(=O)NCC(=O)O)C(=O)O [Glutathione] | 0.976
CCC1(c2ccccc2)NC(=O)N(C)C1=O (stereo not drawn) [Mephenytoin] | 1.17
O=C(O)CNC(=O)C(CS)Cc1ccccc1 (racemic) [DL-Thiorphan] | 1.09
CCCC1C(=O)N2C(N(C)C)=Nc3ccc(C)cc3N2C1=O (stereo not drawn) [Azapropazone] | 1.03
c1cnc(N2CCN(Cc3ccc4c(c3)OCO4)CC2)nc1 [Piribedil] | 1.07
c1cnc(N2CCN(Cc3ccc4c(c3)OCO4)CC2)nc1 [Piribedil hydrochloride] | 0.973
COC(=O)/C=C/c1cccc(N(Cc2ccc(-c3ccc(N(C)C)cc3)cc2)C(=O)C2CCCCC2)c1 [Fexaramine] | 0.978
C[C@](N)(Cc1ccc(O)c(O)c1)C(=O)O [Methyldopa (L,-)] | 1.12
N[C@@H](CSC(c1ccccc1)(c1ccccc1)c1ccccc1)C(=O)O [S-Trityl-L-cysteine] | 0.933

Single values from the list.
Value of C=C1C[C@@]2(O)O[C@@]3(C[C@H]2C(C)C)[C@@H](C)CC[C@@H]13 [Curcumol] under surface PD-L1 immunofluorescence intensity: 1.12
Value of Clc1ccc(CO/N=C(\Cn2ccnc2)c2ccc(Cl)cc2Cl)c(Cl)c1 [Oxiconazole Nitrate] under surface PD-L1 immunofluorescence intensity: 0.957

Remaining list, next part:

Compound | surface PD-L1 immunofluorescence intensity
O=C(CCCN1C(=O)c2cccc3cccc(c23)C1=O)NO [Nullscript] | 0.999
Cc1c(C(=O)NN2CCCCC2)nn(-c2ccc(Cl)cc2Cl)c1-c1ccc(Cl)cc1 | 1.03
COc1cc2c(cc1OC)CC(=O)N(CCCN(C)C[C@H]1Cc3cc(OC)c(OC)cc31)CC2 [Ivabradine HCl (Procoralan)] | 1.04
C[C@H]1c2cccc(O)c2C(=O)C2=C(O)[C@]3(O)C(=O)C(C(N)=O)=C(O)[C@@H](N(C)C)[C@@H]3[C@@H](O)[C@@H]21 [Doxycycline HCl] | 0.973
C[C@H]1c2cccc(O)c2C(=O)C2=C(O)[C@]3(O)C(=O)C(C(N)=O)=C(O)[C@@H](N(C)C)[C@@H]3[C@@H](O)[C@@H]21 [Doxycycline hydrochloride] | 0.923
O=C(O)C(=O)O.[NH-][C@@H]1CCCC[C@H]1[NH-].[Pt+2] [Oxaliplatin] | 0.999
CSc1cc2c(cc1C(F)(F)F)N(C(=O)Nc1cccnc1)CC2 | 1.02
Cc1cc2nc3c(=O)[nH]c(=O)nc-3n(C)c2cc1C=O | 1.03
Cc1ccc(NC(=O)c2ccc(CN3CCN(C)CC3)cc2)cc1Nc1nccc(-c2cccnc2)n1 [Imatinib (STI571)] | 1.11
Cc1ccc(NC(=O)c2ccc(CN3CCN(C)CC3)cc2)cc1Nc1nccc(-c2cccnc2)n1 [Imatinib mesylate] | 1.09 ± 0.033
Cc1ccc(NC(=O)c2ccc(CN3CCN(C)CC3)cc2)cc1Nc1nccc(-c2cccnc2)n1 [Imatinib] | 1.08
Cc1ccc(NC(=O)c2ccc(CN3CCN(C)CC3)cc2)cc1Nc1nccc(-c2cccnc2)n1 [Imatinib Mesylate] | 1.09
CC(C)C(=O)Oc1ccc(CO)cc1[C@H](CCN(C(C)C)C(C)C)c1ccccc1 [Fesoterodine fumarate (Toviaz)] | 0.952
CCOC(=O)O[C@]1(C(=O)OCCl)CC[C@H]2[C@@H]3CCC4=CC(=O)C=C[C@]4(C)[C@H]3[C@@H](O)C[C@@]21C [Loteprednol etabonate] | 0.762
CCc1cc2c(cc1N1CCC(N3CCOCC3)CC1)C(C)(C)c1[nH]c3cc(C#N)ccc3c1C2=O | 0.979
N=C(N)c1ccc(N2CCN(C3CCN(CC(=O)O)CC3)CC2)cc1 | 1.02
C#CCN[C@@H]1CCc2ccccc21 [Rasagiline mesylate] | 1
N#C/C(=C\c1ccc(O)c(O)c1)C(=O)OCCc1cccs1 | 0.996
C1COC(NC(C2CC2)C2CC2)=N1 [Rilmenidine hemifumarate] | 0.993
C1COC(NC(C2CC2)C2CC2)=N1 [Rilmenidine] | 1.05
COc1ccc(-c2cc(=S)ss2)cc1 [Anethole trithione] | 1.04
COc1ccc(-c2cc(=S)ss2)cc1 [Anethole-trithione] | 0.981
COc1ccc(NS(=O)(=O)c2sc3ccc(Cl)cc3c2C)cc1N1CCNCC1 | 0.937
CC1(C)CCC(C)(C)c2cc(C3(c4ccc(C(=O)O)cc4)OCCO3)ccc21 | 1.05
O=C(O)c1cn(C2CC2)c2cc(N3CCNCC3)c(F)cc2c1=O [Ciprofloxacin hydrochloride monohydrate] | 0.917
CCOc1nc2cccc(C(=O)OCc3oc(=O)oc3C)c2n1Cc1ccc(-c2ccccc2-c2noc(=O)[nH]2)cc1 [Azilsartan Medoxomil (TAK-491)] | 0.981
